# Whole data set: some 33,000 sequences, median “E-score (-0.5 to 0.5)” near -0.0059, cut for the highest 2% near 0.26. The list shows a part of the results.
# Molecular target: T1, Cin5 (UniProt P40917)
# T1 sequence: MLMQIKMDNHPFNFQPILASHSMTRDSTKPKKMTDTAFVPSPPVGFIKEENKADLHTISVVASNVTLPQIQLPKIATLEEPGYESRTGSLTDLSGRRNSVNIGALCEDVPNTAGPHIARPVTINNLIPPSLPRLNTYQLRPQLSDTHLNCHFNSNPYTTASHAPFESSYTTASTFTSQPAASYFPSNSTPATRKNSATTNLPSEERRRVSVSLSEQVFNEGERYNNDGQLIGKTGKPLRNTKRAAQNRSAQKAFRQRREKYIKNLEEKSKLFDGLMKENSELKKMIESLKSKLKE
# Assay: PBM E-score (8-mer binding enrichment) (E-score (-0.5 to 0.5)); higher = stronger / more preferred TF binding
# Settings: protein concentration: 100 nM; construct: GST-full length
# Procedure: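 Universal 'all 10-mer' protein binding microarrays (Agilent AMADID 015681) probed with GST-tagged S. cerevisiae TFs (full-length or DBD) made by in vitro transcription/translation (PURExpress), about 100-200 nM. Bound TF was detected with fluorescent anti-GST. Each ungapped 8-mer (which stands for itself and its reverse complement) is scored by the PBM enrichment score (E-score), a modified Wilcoxon-Mann-Whitney statistic from -0.5 to +0.5, computed with the Universal PBM Analysis Suite. Scale: above 0.35 generally sequence-specific binding.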
row,Sequence,PBM E-score
1,CCTATTCA,-0.0293
2,TCTACTCA,0.0957
3,AACTCCCC,0.00124
4,CCGTAATC,0.329
5,CACTTGGC,-0.0907
6,AAGGACCC,-0.275
7,AAGACCCT,-0.111
8,GAAAATCC,-0.067
9,ACGAGATA,-0.0423
10,GTATGGAC,0.0654
11,GGATATCA,-0.0284
12,GCGCACGA,0.0484
13,TCTCCACA,-0.037
14,CACTGCGG,5e-05
15,CAGAGGCC,-0.31
16,AACAATGC,0.224
17,AGTCCAAA,-0.0396
18,ACTTCAAT,0.148
19,ATTGTTGC,0.0803
20,CTGGCGTC,-0.104
21,CACCCGAC,-0.0307
22,ATTCCCTA,0.153
23,AAGCGCCA,-0.158
24,CCTTTTCA,0.022
25,AGGCCACT,-0.0477

row,Sequence,PBM E-score
1,TCGCAGAA,-0.218
2,AATAGTCT,0.102
3,CCCCAGCA,0.0531
4,GCAGTTGA,0.129
5,AACTGCCC,-0.108
6,ATGTCGGC,-0.0782
7,TACCAAGA,0.0462
8,ACAGTTTC,0.21
9,CCAAAACG,0.0689
10,TACACCAA,0.0903
11,AAGAGCCC,-0.195
12,CCACAGGA,0.00553
13,TATTATAA,0.226
14,ACGTACAC,0.105
15,AGATGTCA,0.104
16,ACGCGCGT,0.138
17,AAAGGGCT,-0.259
18,AGCCTCGG,-0.167
19,TACTGAAA,0.267
20,ACGGAGTA,0.0754
21,AGACATTG,-0.0324
22,AACCAGTT,0.174
23,AGCGCCGG,-0.177
24,GGCTAAGA,-0.0331
25,CGTACACC,-0.071

row,Sequence,PBM E-score
1,GCCCCGAC,-0.0599
2,GGTTATGA,0.0558
3,AAGCTCCC,-0.214
4,CAGGCTCA,-0.0177
5,GGTGATCA,-0.0401
6,TGTGGGAA,-0.058
7,CCGACCTC,-0.235
8,AATCATTG,0.207
9,CTCAGACA,0.0313
10,AGCCTGAT,-0.0901
11,GGCGTCGA,0.0474
12,ATCGTCCA,-0.142
13,ATACGCAC,0.0197
14,ACTAATGC,0.191
15,AAGAACTG,-0.0845
16,ACGCCGTC,0.0294
17,CCCCACGG,-0.153
18,GGATTTAC,0.0769
19,CTCAGATC,0.0619
20,GAAGGTAA,0.0631
21,GAATCTCA,-0.0979
22,CTCTTCTA,-0.0775
23,ACGTGCGG,0.037
24,ATATCCTA,0.0388
25,GAGAAGGA,-0.0759

row,Sequence,PBM E-score
1,CACTATAG,0.0419
2,CCACGACC,-0.122
3,GCTACATA,0.0756
4,AGCTACTC,-0.0316
5,AGCTCGGC,-0.036
6,AAAATGGG,-0.0874
7,CACATTAC,0.255
8,AGCCACTA,-0.00233
9,CGGTCATC,0.0195
10,GTAAAGCA,0.124
11,ATAAATAC,0.279
12,CCGGGCCA,-0.245
13,GACCCGTA,-0.178
14,CTACTAAA,-0.0525
15,CTTGGTTA,0.133
16,CTGAGTGC,-0.0995
17,GCGGGCGA,0.0565
18,AAGTTTTG,0.149
19,CGAAACGA,-0.00691
20,CAGTCGGA,-0.146
21,ATAGATGC,0.0293
22,AGATCTAC,0.121
23,TATGATGA,0.176
24,GTCAATAA,0.0365
25,ACCTTATG,-0.00391

# In a second layout: results already given
row | Sequence | PBM E-score
14 | CACTGCGG | 5e-05
15 | CAGAGGCC | -0.31
16 | AACAATGC | 0.224
17 | AGTCCAAA | -0.0396
18 | ACTTCAAT | 0.148
19 | ATTGTTGC | 0.0803
20 | CTGGCGTC | -0.104
21 | CACCCGAC | -0.0307
22 | ATTCCCTA | 0.153
23 | AAGCGCCA | -0.158
24 | CCTTTTCA | 0.022
25 | AGGCCACT | -0.0477
1 | TCGCAGAA | -0.218
2 | AATAGTCT | 0.102
3 | CCCCAGCA | 0.0531
4 | GCAGTTGA | 0.129
5 | AACTGCCC | -0.108
6 | ATGTCGGC | -0.0782
7 | TACCAAGA | 0.0462
8 | ACAGTTTC | 0.21
9 | CCAAAACG | 0.0689
10 | TACACCAA | 0.0903
11 | AAGAGCCC | -0.195
12 | CCACAGGA | 0.00553
13 | TATTATAA | 0.226
14 | ACGTACAC | 0.105
15 | AGATGTCA | 0.104
16 | ACGCGCGT | 0.138
17 | AAAGGGCT | -0.259
18 | AGCCTCGG | -0.167
19 | TACTGAAA | 0.267
20 | ACGGAGTA | 0.0754
21 | AGACATTG | -0.0324
22 | AACCAGTT | 0.174
23 | AGCGCCGG | -0.177
24 | GGCTAAGA | -0.0331
25 | CGTACACC | -0.071
1 | GCCCCGAC | -0.0599
2 | GGTTATGA | 0.0558
3 | AAGCTCCC | -0.214
4 | CAGGCTCA | -0.0177
5 | GGTGATCA | -0.0401
6 | TGTGGGAA | -0.058
7 | CCGACCTC | -0.235
8 | AATCATTG | 0.207
9 | CTCAGACA | 0.0313
10 | AGCCTGAT | -0.0901
11 | GGCGTCGA | 0.0474
12 | ATCGTCCA | -0.142
13 | ATACGCAC | 0.0197
14 | ACTAATGC | 0.191
15 | AAGAACTG | -0.0845
16 | ACGCCGTC | 0.0294
17 | CCCCACGG | -0.153
18 | GGATTTAC | 0.0769
19 | CTCAGATC | 0.0619
20 | GAAGGTAA | 0.0631
21 | GAATCTCA | -0.0979

# (continued)

row,Sequence,PBM E-score
1,CGCTACAA,0.0999
2,CGGAGATC,-0.0902
3,CAACTCTA,-0.0843
4,AATGCTAG,-0.0233
5,AGTTCGCC,-0.023
6,ATGTGGCA,-0.0905
7,CGGACGGC,-0.115
8,AAGCGATA,0.0391
9,AAGTAATG,0.184
10,CCTTTACC,-0.224
11,CGATTGCG,0.0141
12,CTGCGCCC,-0.208
13,ACTTGATA,0.209
14,GTTATAAA,0.198
15,CTCACAGA,-0.101
16,ATGTAGTG,0.132
17,AGTTGCAG,0.0134
18,AAGACTTG,-0.0583
19,GTTAGTAA,0.111
20,AGTGGTGA,-0.0582
21,AGCCATAG,-0.141
22,CCGGACGC,0.00937
23,ACAAAACA,0.156
24,CTTCCCCC,-0.394
25,ATGCATAC,0.223

row,Sequence,PBM E-score
1,ATGAAAGA,0.122
2,CATGCCAA,0.0522
3,TTACTCAA,0.148
4,AACTCCCG,0.00321
5,ACTCGGCC,-0.0935
6,GAGCCATC,-0.106
7,CCCTCCCG,-0.257
8,CCACGAAA,-0.0837
9,CGACTCCG,-0.18
10,TGGGCAAA,-0.0173
11,ACGCGTTC,-0.012
12,AAATAATC,0.17
13,CTAAAATA,0.107
14,AAAGCGCA,-0.0252
15,CAGGGAGC,-0.289
16,GAGGAGAA,-0.316
17,CATAACTA,0.109
18,CTTAGCCA,0.0934
19,CGGGTACG,-0.281
20,CTCAGTGC,-0.0828
21,CGCACAAG,-0.0688
22,CAGAGCTA,-0.331
23,AAAAGATT,-0.0107
24,GGTGCCTA,-0.127
25,CAATACAA,0.308

row,Sequence,PBM E-score
1,CACATTTC,0.152
2,AGTAACAC,0.163
3,CTCGGGAA,0.0007
4,CTAGCGCA,-0.0573
5,CCAGACTA,-0.0111
6,TACATGTA,0.229
7,CCCCCCAC,-0.478
8,CCAATTAG,0.176
9,ATGGGACC,0.0185
10,CCCTAAAA,-0.15
11,GTCGGCCA,-0.189
12,ACCAAGCG,-0.0401
13,CCGATCAA,-0.0326
14,GGATGAAC,0.0448
15,CCTAGGAG,-0.232
16,TAATAGTA,0.228
17,ATCGGAAG,0.0974
18,GGGCGGAA,0.175
19,AACGGACT,-0.241
20,ACGGCACA,-0.144
21,ACATCCAA,0.0835
22,GTCCTCCA,-0.157
23,GTTTATTA,0.215
24,GGTAGCAA,-0.117
25,AGTTAGAC,0.0146

row,Sequence,PBM E-score
1,ATAGATCA,0.173
2,CTGGCAAC,-0.158
3,AGTCAGAA,0.0132
4,TATCTAGA,-0.106
5,ATTGTTGA,0.149
6,AAGTAGTG,0.138
7,ATAACACA,0.229
8,ATGCAAGC,0.0531
9,GAAGCAGC,-0.162
10,AGGTAGCC,-0.088
11,CATCGGCC,-0.17
12,CATATTGC,0.0152
13,ACAGCCTG,-0.011
14,CGGCACAC,-0.0518
15,CATGATGG,-0.00846
16,ATTTATAA,0.299
17,ACGCTACT,-0.0514
18,CAGGCAGC,-0.109
19,AGATCATC,0.0713
20,ATCTAATC,0.306
21,CTTGAGTA,0.0776
22,ACAGAAGG,-0.212
23,CTAGTAAG,0.116
24,AAGGAGAA,0.0927
25,ATACTCTG,0.137

row,Sequence,PBM E-score
1,ATAGTTGA,0.121
2,CCGGATGC,-0.0297
3,ACCCAACA,0.00467
4,CTTGATTC,0.122
5,ACGAAGAG,-0.0165
6,AGAGCTAA,-0.159
7,CGTGCAAA,0.00551
8,GGCAAACA,0.123
9,CCAGATCC,-0.169
10,ACTAATTG,0.175
11,CCCATTAG,-0.353
12,ATATGAGA,0.106
13,ACGTCGAG,-0.0874
14,GAACGTGC,-0.213
15,GAGAGTGC,-0.0979
16,CGACGTAC,-0.00505
17,CGTAGACG,-0.217
18,CGCCCTAC,-0.331
19,AACAACTC,-0.0352

# — the supplement of paper PMC3334620
